“Also recorded” adds a separate entry of the source. For some of these results: What was measured is the transcript of the gene that encodes the chain shown.
Columns and labels:
[1] = tested on: FFPE tissue samples from prostate cancer, normal tissues, PBMCs and cell lines; test: Expression profiling of prostate neoantigens in tumor and normal tissues (Fluidigm Biomark HD); parameters: species or system human; details: panel of normal tissues, qPCR
[2] = Prevalence of neoantigens in RNAseq data of frozen prostate cancer tissues (n = 11); parameters: species or system human; details: Table 22, prevalence in 11 frozen prostate cancer tissues

Molecule | Normal Tissue Expression [1] | Frozen prostate cancer tissues* (n = 11) [2]
KRSFAVTERII (listed as Homo sapiens) [AS13, splice variant GRIN3A] | None | 27.3
CGASACDVSLIAMDSA (listed as Homo sapiens) [FUS1, fusion SLC45A3->ELK4] | Prostate | –
TMPAILKLQKNCLLSL (listed as Homo sapiens) [MS8, neoantigen] | None | 18.2
HVVGYGHLDTSGSSSSSSWP (listed as Homo sapiens) [FUS15, fusion D2HGDH->GAL3ST2] | None | –
EAFQRAAGEGGPGRGGARRGARVLQSPFCRAGAGEWLGHQSLR (listed as Homo sapiens) [AS41, splice variant RHPN1] | Ovary | 0.0
CEERGAAGSLISCE (listed as Homo sapiens) [FUS6, fusion TMPRSS2->ERG] | None | –
QWQHYHRSGEAAGTPLWRPTRN (listed as Homo sapiens) [AS19, splice variant NWD1] | Ovary, Prostate | –
TEISCCTLSSEENEYLPRPEWQLQ (listed as Homo sapiens) [FUS3, fusion MSMB->NCOA4] | Prostate | –
GMECTLGQVGAPSPRREEDGWRGGHSRFKADVPAPQGPCWGGQPGSAPSSAPPEQSLLD (listed as Homo sapiens) [AS51, splice variant CPNE7] | Ovary | 9.1
LVLGVLSGHSGSRL (listed as Homo sapiens) [AS8, splice variant CACNA1D] | None | 0.0
WKFEMSYTVGGPPPHVHARPRHWKTDR (listed as Homo sapiens) [AS18, splice variant NWD1] | Ovary, Prostate | –
GNTTLQQLGEASQAPSGSLIPLRLPLLWEVRG (listed as Homo sapiens) [AS16, splice variant LRRC45] | Ovary | 45.5
DGHSYTSKVNCLLLQDGFHGCVSITGAAGRRNLSIFLFLMLCKLEFHAC (listed as Homo sapiens) [AS55, splice variant SPOCK1] | Prostate | 18.2
VAMMVPDRQVHYDFGL (listed as Homo sapiens) [AS3, splice variant DNAH8] | None | 27.3
TGGKSTCSAPGPQSLPSTPFSTYPQWVILITEL (listed as Homo sapiens) [AS57, splice variant KLK3] | Prostate | 36.4
VLRFLDLKVRYLHS (listed as Homo sapiens) [AS15, splice variant LRRC45] | Ovary,; also recorded: Mammary Gland | 36.4
DYWAQKEKGSSSFLRPSC (listed as Homo sapiens) [AS7, splice variant ACSM1] | None | 27.3

Molecule | Normal Tissue Expression [1] | Frozen prostate cancer tissues* (n = 11) [2]
NSKMALNSLNSIDDAQLTRIAPPRSHCCFWEVNAP (listed as Homo sapiens) [Neoantigen P35, TMPRSS2-ERG] | None | –
RTALTHNQDFSIYRLCCKRGSLCHASQARSPAFPKPVRPLPAPITRITPQLGGQSDSSQPLLTTGRPQGWQDQALRHTQQASPASCATITIPIHSAALGDHSGDPGPAWDTCPPLPLTTLIPRAPPPYGDSTARSWPSRCGPLG [MS3, neoantigen] | None | 9.1
SLYHREKQLIAMDSAI (listed as Homo sapiens) [Neoantigen P22, 5LC45A3-ELK4] | Prostate | –
YEAGMTLGGKILFFLFLLLPLSPFSLIF (listed as Homo sapiens) [Neoantigen P87, AR-Intron] | Ovary, Prostate | 0.0
FKKFDGPCGERGGGRTARALWARGDSVLTPALDPQTPVRAPSLTRAAAAV (listed as Homo sapiens) [AS47, splice variant AGRN] | Ovary | 0.0
KIQNKNCPD (listed as Homo sapiens) [AS23, splice variant ZNF614] | Ovary, Prostate,; also recorded: Mammary Gland | 45.5
DYWAQKEKISIPRTHLC (listed as Homo sapiens) [AS6, splice variant ACSM1] | None | 27.3
NSKMALNSEALSVVSE (listed as Homo sapiens) [FUS5, fusion TMPRSS2->ERG] | None | –
KMHFSLKEHPPPPCPP (listed as Homo sapiens) [FUS19, fusion GTF2F1->PSPN] | None | –
TEYNQKLQVNQFSESK (listed as Homo sapiens) [FUS2, fusion ARHGEF38->ARHGEF38-IT1] | Mammary Gland | –
VPFRELKNVSVLEGLRQGRLGGPCSCHCPRPSQARLTPVDVAGPFLCLGDPGLFPPVKSSI (peptide, listed as Homo sapiens, splice variant CPNE7) VPFRELKNVSVLEGLRQGRLGGPCSCHCPRPSQARLTPVDVAGPFLCLGDPGLFPPVKSSI | Mammary Gland | 0.0
VPFRELKNQRTAQGAPGIHHAASPVAANLCDPARHAQHTRIPCGAGQVRAGRGPEAGGGVLQPQRPAPEKPGCPCRRGQPRLHTVKMWRA (peptide, listed as Homo sapiens, splice variant CPNE7) VPFRELKNQRTAQGAPGIHHAASPVAANLCDPARHAQHTRIPCGAGQVRAGRGPEAGGGVLQPQRPAPEKPGCPCRRGQPRLHTVKMWRA | None | 9.1
CHLFLQPQVGTPPPHTASARAPSGPPHPHESCPAGRRPARAAQTCARRQHGLPGCEEAGTARVPSLHLHLHQAALGAGRGRGWGEACAQVPPSRG (peptide, listed as Homo sapiens, splice variant RECQL4) CHLFLQPQVGTPPPHTASARAPSGPPHPHESCPAGRRPARAAQTCARRQHGLPGCEEAGTARVPSLHLHLHQAALGAGRGRGWGEACAQVPPSRG | None | 0.0
HYKLIQQPISLFSITDRLHKTFSQLPSVHLCSITFQWGHPPIFCSTNDICVTANFCISVTFLKPCFLLHEASASQ (peptide, listed as Homo sapiens, neoantigen) HYKLIQQPISLFSITDRLHKTFSQLPSVHLCSITFQWGHPPIFCSTNDICVTANFCISVTFLKPCFLLHEASASQ | None | 18.2
YAYKDFLWCFPFSLVFLQEIQICCHVSCLCCICCSTRICLGCLLELFLSRALRALHVLWNGFQLHCQ (peptide, listed as Homo sapiens, neoantigen) YAYKDFLWCFPFSLVFLQEIQICCHVSCLCCICCSTRICLGCLLELFLSRALRALHVLWNGFQLHCQ | None | 9.1
WGMELAASRRFSWDHHSAGGPPRVPSVRSGAAQVQPKDPLPLRTLAGCLARTAHLRPGAESLPQPQLHCT (peptide, listed as Homo sapiens, fusion INCA1->CAMTA2) WGMELAASRRFSWDHHSAGGPPRVPSVRSGAAQVQPKDPLPLRTLAGCLARTAHLRPGAESLPQPQLHCT | None | –
LWFQSSELSPTGAPWPSRRPTWRGTTVSPRTATSSARTCCGTKWPSSQEAALGLGSGLLRFSCGTAAIR (peptide, listed as Homo sapiens, fusion NME4->DECR2) LWFQSSELSPTGAPWPSRRPTWRGTTVSPRTATSSARTCCGTKWPSSQEAALGLGSGLLRFSCGTAAIR | None | –

Source: patent US12582683B2, “Prostate neoantigens and their uses” (Jansen Biotech, Inc., priority 2019, dated 2026)
